Experimental data published in doi:10.1101/2024.12.13.628402 (bioRxiv, 2024).
Results are given in words; binding and its absence hold for the method and conditions named. Tags and fused reporters may be left off the sequences shown.

Target: T1, His6-YidC (E. coli, UniProt P25714 1-548)
T1 sequence (looked up): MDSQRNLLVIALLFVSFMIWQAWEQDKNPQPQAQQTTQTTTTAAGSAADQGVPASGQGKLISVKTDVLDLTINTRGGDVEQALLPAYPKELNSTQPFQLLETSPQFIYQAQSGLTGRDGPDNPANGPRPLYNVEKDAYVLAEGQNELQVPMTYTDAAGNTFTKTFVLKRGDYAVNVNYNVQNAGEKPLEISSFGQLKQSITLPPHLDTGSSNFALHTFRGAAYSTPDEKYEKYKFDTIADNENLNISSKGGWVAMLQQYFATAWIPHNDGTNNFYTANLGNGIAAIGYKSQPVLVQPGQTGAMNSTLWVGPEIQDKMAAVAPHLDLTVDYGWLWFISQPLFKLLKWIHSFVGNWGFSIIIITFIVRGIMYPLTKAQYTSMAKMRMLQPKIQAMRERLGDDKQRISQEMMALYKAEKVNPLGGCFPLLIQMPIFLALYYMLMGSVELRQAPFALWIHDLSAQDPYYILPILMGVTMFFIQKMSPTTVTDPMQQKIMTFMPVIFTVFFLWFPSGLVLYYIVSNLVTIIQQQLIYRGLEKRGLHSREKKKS
Experiment: native gel or EMSA

B1: YibN△1-29-His6 (domain or fragment, UniProt P0AG27 30-143)
chain: FKSLTSKVKVITRGEATRLINKEDAVVVDLRQRDDFRKGHIAGSINLLPSEIKANNVGELEKHKDKPVIVVDGSGMQCQEPANALTKAGFAQVFVLKEGVAGWAGENLPLVRGK
- binding: no binding (tested: 3 µg each)
